The source of these data is article PMC7848109.

Amino acid sequences for entries named in this document (tags omitted).
UniProt Q91XJ1: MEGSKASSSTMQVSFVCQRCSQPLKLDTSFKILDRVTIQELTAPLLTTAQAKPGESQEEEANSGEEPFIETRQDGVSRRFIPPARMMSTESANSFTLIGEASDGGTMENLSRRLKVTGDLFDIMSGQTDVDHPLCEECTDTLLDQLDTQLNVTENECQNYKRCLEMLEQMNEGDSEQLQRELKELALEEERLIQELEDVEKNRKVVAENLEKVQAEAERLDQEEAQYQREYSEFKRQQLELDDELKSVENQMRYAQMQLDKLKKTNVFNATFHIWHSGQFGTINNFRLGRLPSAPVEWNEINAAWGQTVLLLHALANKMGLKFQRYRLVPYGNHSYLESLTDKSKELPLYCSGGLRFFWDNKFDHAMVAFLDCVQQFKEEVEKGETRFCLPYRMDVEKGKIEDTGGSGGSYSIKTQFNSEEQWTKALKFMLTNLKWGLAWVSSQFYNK
UniProt P49950: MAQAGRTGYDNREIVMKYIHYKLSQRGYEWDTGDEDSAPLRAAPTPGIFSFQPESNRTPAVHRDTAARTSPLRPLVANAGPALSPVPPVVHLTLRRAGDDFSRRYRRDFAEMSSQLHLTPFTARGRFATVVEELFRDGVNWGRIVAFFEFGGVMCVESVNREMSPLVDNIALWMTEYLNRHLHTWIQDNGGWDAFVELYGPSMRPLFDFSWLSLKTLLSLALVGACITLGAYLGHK

The assay has as its target beclin1 (rat (endogenous in corpus luteum)) (UniProt Q91XJ1). The experiment in a line: co-IP; fresh corpus luteum of pregnant rats (Day 1, 4 and 10; Day 1 with or without echinomycin) homogenized in immunoprecipitation lysis buffer; precipitated with anti-BNIP3 or anti-beclin1 antibody overnight at 4°C on Protein A/G PLUS-agarose, washed with PBS, blotted for Bcl-2.

No constants are given. Whether binding was seen depends on the method and setting. Binding seen in cells or lysates may run through a third protein. Some entries that bind do so weakly or less than the wild type.

Turning to Bcl-2 (from UniProt P49950 1-236), the binding result is listed as “binds”.
